A short description of this data set: general procedure: Fmoc solid-phase peptide synthesis; 2-chlorotritylchloride resin; Benzotriazol-1-yl-oxytripyrrolidinophosphonium hexafluorophosphate, 1-hydroxyben. The settings on record: conjugation step.

Take “C-GFTQPETGTDNDLWSVDNEK (Tris-(Gd-DOTA)3 conjugate)”: the conjugation yield came out at 68%.

For the origin of these results see patent publication US9415122B2 (priority 2008, dated 2016).
